According to patent US8895744B2, “Alfa-carboline inhibitors of NPM-ALK, RET, and Bcr-Abl” (Universita' Degli Studi di Milano-Bicocca, priority 2008, dated 2014):
The structures given here were assigned with low confidence; some may be wrong.

Amino acid sequences for entries named in this document (tags omitted). Residues count along the entry.
UniProt Q9UM73, whole entry: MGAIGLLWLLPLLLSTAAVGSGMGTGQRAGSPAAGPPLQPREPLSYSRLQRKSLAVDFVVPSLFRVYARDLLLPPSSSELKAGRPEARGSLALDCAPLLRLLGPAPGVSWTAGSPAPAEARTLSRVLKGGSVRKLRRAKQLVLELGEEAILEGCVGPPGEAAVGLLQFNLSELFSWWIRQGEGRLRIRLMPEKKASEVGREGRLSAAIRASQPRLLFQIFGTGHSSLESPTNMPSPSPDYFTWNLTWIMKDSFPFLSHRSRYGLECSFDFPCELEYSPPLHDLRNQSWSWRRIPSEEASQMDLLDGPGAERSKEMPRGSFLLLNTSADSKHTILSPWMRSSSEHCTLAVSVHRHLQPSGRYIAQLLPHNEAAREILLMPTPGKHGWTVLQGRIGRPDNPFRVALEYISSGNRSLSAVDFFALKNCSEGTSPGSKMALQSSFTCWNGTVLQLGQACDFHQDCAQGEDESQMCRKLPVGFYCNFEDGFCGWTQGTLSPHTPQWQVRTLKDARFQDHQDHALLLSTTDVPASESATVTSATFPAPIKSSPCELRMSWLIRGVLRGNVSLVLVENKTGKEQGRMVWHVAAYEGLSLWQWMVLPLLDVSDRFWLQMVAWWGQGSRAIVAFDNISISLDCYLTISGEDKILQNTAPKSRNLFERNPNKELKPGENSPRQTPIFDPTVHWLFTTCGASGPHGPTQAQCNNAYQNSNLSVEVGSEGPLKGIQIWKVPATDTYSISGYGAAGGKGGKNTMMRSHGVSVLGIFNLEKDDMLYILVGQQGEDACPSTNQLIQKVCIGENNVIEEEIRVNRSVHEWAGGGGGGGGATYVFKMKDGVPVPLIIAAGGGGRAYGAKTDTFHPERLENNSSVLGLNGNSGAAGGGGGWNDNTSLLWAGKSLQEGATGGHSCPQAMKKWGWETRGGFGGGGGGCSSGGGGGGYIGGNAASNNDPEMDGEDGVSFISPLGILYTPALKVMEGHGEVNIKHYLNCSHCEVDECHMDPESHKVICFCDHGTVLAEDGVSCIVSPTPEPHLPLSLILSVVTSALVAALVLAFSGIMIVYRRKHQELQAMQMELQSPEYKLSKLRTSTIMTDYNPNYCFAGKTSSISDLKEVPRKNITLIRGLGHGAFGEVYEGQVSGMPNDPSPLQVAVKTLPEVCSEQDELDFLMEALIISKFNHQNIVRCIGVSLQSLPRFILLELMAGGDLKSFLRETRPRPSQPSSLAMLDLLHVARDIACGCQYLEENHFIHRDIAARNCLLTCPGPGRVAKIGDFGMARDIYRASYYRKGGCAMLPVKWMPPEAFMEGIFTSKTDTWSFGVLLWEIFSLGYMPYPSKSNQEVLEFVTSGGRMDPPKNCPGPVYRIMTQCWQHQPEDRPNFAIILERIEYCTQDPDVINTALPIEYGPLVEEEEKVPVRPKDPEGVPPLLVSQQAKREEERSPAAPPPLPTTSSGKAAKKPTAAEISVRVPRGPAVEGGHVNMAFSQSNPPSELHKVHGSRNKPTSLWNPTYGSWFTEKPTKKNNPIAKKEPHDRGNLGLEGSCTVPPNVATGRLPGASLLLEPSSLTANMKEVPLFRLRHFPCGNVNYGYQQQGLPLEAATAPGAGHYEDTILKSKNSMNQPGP
UniProt Q9UM73, 19-1620 limits assumed: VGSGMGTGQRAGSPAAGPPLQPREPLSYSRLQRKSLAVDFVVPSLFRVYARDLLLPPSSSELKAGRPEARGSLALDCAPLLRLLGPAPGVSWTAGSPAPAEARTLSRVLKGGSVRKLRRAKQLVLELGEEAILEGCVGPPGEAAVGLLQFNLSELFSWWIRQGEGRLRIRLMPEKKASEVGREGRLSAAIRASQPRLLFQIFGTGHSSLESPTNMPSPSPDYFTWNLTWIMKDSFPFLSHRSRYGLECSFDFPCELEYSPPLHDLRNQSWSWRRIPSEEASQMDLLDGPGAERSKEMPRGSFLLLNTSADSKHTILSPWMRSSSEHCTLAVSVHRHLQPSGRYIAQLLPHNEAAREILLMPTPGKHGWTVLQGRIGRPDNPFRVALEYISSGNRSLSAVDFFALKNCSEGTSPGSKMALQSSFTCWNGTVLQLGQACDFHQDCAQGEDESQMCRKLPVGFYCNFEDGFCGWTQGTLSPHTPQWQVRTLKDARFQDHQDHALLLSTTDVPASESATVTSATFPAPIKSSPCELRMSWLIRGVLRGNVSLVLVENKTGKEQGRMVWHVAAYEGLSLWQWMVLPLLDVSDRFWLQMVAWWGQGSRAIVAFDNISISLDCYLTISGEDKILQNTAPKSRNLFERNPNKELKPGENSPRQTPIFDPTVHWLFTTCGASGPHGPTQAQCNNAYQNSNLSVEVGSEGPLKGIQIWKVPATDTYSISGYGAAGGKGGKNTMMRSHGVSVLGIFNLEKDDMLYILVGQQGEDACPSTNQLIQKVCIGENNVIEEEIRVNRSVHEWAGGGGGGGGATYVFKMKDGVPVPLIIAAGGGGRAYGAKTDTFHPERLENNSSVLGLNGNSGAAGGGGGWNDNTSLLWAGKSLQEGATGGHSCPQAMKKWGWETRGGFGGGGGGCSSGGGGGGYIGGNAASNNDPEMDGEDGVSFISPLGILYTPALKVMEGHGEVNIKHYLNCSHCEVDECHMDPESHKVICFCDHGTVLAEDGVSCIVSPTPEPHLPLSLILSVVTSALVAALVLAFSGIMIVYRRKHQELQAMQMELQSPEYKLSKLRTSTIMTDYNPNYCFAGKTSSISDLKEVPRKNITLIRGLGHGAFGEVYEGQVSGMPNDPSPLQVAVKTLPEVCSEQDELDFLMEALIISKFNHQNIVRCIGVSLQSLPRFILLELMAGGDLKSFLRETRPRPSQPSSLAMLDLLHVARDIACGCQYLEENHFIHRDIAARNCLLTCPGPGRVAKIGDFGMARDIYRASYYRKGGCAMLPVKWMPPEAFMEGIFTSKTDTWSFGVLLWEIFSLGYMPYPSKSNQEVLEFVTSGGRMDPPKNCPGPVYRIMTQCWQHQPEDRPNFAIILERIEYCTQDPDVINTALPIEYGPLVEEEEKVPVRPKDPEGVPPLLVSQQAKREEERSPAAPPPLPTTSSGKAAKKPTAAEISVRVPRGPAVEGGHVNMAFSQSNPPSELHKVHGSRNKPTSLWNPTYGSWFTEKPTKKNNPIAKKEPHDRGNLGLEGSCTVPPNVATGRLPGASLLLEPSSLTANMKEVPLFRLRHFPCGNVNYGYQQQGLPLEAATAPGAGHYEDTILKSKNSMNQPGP
UniProt P07949, 29-1114 limits assumed: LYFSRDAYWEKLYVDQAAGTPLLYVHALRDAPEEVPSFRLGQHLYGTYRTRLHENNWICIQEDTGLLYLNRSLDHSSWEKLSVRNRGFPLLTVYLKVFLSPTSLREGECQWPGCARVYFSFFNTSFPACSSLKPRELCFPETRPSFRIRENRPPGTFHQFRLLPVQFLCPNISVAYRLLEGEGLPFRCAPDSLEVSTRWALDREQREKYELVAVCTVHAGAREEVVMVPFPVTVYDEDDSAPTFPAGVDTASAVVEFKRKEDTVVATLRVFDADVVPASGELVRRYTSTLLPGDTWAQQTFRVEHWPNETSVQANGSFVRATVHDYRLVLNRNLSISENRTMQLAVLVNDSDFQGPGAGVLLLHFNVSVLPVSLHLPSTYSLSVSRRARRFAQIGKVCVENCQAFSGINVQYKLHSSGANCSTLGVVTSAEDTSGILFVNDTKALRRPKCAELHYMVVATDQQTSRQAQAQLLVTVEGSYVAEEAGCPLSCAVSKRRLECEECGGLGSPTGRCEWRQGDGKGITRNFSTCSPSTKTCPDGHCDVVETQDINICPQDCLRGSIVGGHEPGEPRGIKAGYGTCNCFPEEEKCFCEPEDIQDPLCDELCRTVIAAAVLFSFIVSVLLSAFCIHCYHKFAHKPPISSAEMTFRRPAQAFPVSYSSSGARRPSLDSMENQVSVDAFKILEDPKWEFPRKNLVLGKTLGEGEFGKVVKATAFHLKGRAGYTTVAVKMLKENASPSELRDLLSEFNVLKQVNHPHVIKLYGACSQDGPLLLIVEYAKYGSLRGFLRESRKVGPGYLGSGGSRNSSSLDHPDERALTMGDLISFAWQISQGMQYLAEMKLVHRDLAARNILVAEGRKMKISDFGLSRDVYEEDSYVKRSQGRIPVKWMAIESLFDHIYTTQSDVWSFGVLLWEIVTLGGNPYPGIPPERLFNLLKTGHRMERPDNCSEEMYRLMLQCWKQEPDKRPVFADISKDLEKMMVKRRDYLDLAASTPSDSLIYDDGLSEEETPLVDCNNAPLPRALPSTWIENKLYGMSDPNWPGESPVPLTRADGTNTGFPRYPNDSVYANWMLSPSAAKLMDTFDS
UniProt P00519, whole entry T315I: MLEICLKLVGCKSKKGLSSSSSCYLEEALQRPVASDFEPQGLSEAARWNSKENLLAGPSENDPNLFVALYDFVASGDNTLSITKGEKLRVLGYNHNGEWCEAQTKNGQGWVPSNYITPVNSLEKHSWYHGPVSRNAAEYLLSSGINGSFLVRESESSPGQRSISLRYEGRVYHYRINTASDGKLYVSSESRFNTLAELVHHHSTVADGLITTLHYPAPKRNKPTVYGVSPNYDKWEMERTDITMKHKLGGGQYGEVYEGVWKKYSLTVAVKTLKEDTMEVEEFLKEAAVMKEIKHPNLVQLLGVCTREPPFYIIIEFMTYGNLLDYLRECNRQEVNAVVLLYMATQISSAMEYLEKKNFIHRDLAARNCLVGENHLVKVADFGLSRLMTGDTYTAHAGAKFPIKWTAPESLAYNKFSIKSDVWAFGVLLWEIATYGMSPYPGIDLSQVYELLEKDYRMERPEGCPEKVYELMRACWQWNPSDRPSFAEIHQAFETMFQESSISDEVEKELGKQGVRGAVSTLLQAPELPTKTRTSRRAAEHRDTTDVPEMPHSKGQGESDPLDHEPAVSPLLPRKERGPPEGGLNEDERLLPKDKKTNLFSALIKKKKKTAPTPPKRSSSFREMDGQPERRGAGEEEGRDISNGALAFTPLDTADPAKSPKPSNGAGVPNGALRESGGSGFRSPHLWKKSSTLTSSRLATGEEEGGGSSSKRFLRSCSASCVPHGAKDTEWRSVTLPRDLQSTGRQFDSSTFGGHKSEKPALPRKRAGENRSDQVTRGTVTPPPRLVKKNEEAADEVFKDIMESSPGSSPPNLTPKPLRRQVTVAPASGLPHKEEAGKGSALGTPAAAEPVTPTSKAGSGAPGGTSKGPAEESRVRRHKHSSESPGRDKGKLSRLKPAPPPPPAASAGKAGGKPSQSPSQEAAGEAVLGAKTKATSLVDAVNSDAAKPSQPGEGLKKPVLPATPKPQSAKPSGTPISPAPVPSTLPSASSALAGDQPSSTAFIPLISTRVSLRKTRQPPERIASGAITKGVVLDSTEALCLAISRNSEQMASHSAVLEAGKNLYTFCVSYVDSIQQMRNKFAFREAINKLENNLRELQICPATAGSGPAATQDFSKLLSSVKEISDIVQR

Key:
Recombinant ALK kinase = Recombinant ALK kinase (Homo sapiens, UniProt Q9UM73); experiment: ALK kinase inhibitory activity, ELISA-based in vitro kinase assay; format: biochemical; details: read-out: ALK IC50, purified rALK, 0.3 mM ATP
Protocol: 36. Alk Kinase Inhibitory Activity
Method: ELISA-Based In Vitro Kinase Assay
Recombinant ALK kinase was expressed in Sf9 insect cells using the pBlueBacHis2C baculovirus vector system and purified using an anion exchange Fast Flow Q-sepharose column (Amersham-Pharmacia Biotech) followed by HiTrap™-nickel affinity column (Amersham-Pharmacia Biotech). Purified ALK protein was used to screen inhibitors in the ELISA-based kinase assay. A Nunc Immuno 96 well plate was incubated overnight at 37° C. with coating solution (125 μL/well) containing ALK peptide substrate ([…]) (SEQ ID NO: 1) at various concentrations in PBS. Wells were then washed with 200 μL of wash buffer (PBS-Tween 0.05%) and left to dry for at least 2 h at 37° C. The kinase reaction was performed in the presence of 50 mM Tris pH 7.5, 5 mM MnCl2, 5 mM MgCl2, 0.3 mM ATP and purified rALK in a total volume of 100 μL/well at 30° C. for 15 min. For inhibitor testing the reaction mix was preincubated with the inhibitor or solvent control for 10 min at room temperature before transferring to the ELISA plate. After the reaction wells were washed 5 times with 200 μL of wash buffer. Phosphorylated peptide was detected using 100 μL/well of a mouse monoclonal anti-phosphotyrosine antibody (clone 4G10 Upstate Biotech Ltd) diluted 1:2000 in PBS+4% BSA. After 30 min incubation at room temperature the antibody was removed and wells were washed as described above. 100 μL of a secondary antibody (anti-mouse IgG, Horseradish Peroxidase linked whole antibody, Amersham Pharmacia Biotech) diluted 1:1000 in PBS+4% BSA was added to each well and the plate was incubated again for 30 min at room temperature before washing as above. The plate was developed using 100 μL/well TMB Substrate Solution (Endogen) and the reaction was stopped by adding an equiv.ual volume of H2SO4 0.36 M. Finally, the absorbance was read at 450 nm using an Ultrospec® 300 spectrophotometer (Amersham-Pharmacia Biotech). The concentration of the test solution showing 50% inhibition as compared with the control was expressed as IC50 (μM).

[1] = test system: parent untransformed BaF3 cells; experiment: Tritiated thymidine uptake cell proliferation assay, parental BaF3 (control); details: read-out: BaF parental IC50; 3[H]-thymidine uptake, 72 h, medium with IL-3
Protocol: (§1) Method: Tritiated Thymidine Uptake Cell Proliferation Assay
(§2) The following procedure was used with parent untransformed BaF3 cells, BaF3 cells transformed with the oncogenic fusion protein NPM/ALK, NPM/ALK positive SUDHL-1 cells, ALK-negative U937 cells, NPM/ALK positive KARPAS-299 cells. The parent untransformed BaF3 cells and Alk-negative U937 cells are used as controls. Cells were seeded in U-bottomed 96-well plates at 10 000 cells/well in a volume of 100 μL in supplemented medium. In the case of the parent untransformed BaF3 cells, the medium was supplemented with IL-3. Serial dilutions of inhibitors were added to the appropriate wells and volumes adjusted to 200 μL. Controls were treated with the equivalent volume of vehicle, DMSO, alone. Plates were incubated at 37° C. for 72 h. ^3[H]-thymidine (1 μCi/well) was added for the last 16 h of incubation. Cells were harvested on to paper filters and ^3[H]-thymidine incorporation was measured using a β scintillation counter (1430 MicroBeta, Wallac, Turku, Finland). The 50% inhibitory concentration (IC50) was defined as the concentration of inhibitor, expressed in micromolar, that gave a 50% decrease in ^3[H]-thymidine uptake compared with controls.
The following procedure was used with parent untransformed BaF3 cells, BaF3 cells transformed with the oncogenic fusion protein bcr-abl, Abl-negative U937 cells, or Bcr-abl positive LAMA-84 cells. The parent untransformed BaF3 cells and Abl-negative U937 cells are used as controls. Cells were seeded in U-bottomed 96-well plates at 10 000 cells/well in a volume of 100 μL in supplemented medium. […] Cells were harvested on to paper filters and ^3[H]-thymidine incorporation was measured using a β scintillation counter (1430 MicroBeta, Wallac, Turku, Finland). […]
(§3) The following procedure was used with parent untransformed BaF3 cells, BaF3 cells transformed with the oncogenic fusion protein RET-PTC2, or RET-negative 11937 cells. […] Cells were harvested on to paper filters and ^3[H]-thymidine incorporation was measured using a β scintillation counter (1430 MicroBeta, Wallac, Turku, Finland). […]

[2] = target: BaF3 cells transformed with the oncogenic fusion protein NPM/ALK (Homo sapiens, UniProt Q9UM73); experiment: Tritiated thymidine uptake cell proliferation assay, BaF3 NPM/ALK; details: read-out: BaF NPM/ALK IC50; 3[H]-thymidine uptake, 72 h
Protocol: (§4) Inhibition of the proliferation of NPM/ALK positive cells
as §1, §2

Recombinant Ret protein = Recombinant Ret protein (Homo sapiens, UniProt P07949); experiment: RET kinase inhibitory activity, ELISA-based in vitro kinase assay; format: biochemical; details: read-out: RET IC50, purified Ret, 0.3 mM ATP
Protocol: (§5) Recombinant ALK kinase was expressed in Sf9 insect cells using the pBlueBacHis2C baculovirus vector system and purified using an anion exchange Fast Flow Q-sepharose column (Amersham-Pharmacia Biotech) followed by HiTrap™-nickel affinity column (Amersham-Pharmacia Biotech). Purified ALK protein was used to screen inhibitors in the ELISA-based kinase assay. A Nunc Immuno 96 well plate was incubated overnight at 37° C. with coating solution (125 μL/well) containing ALK peptide substrate ([…]) (SEQ ID NO: 1) at various concentrations in PBS. Wells were then washed with 200 μL of wash buffer (PBS-Tween 0.05%) and left to dry for at least 2 h at 37° C. The kinase reaction was performed in the presence of 50 mM Tris pH 7.5, 5 mM MnCl2, 5 mM MgCl2, 0.3 mM ATP and purified rALK in a total volume of 100 μL/well at 30° C. for 15 min. […] Phosphorylated peptide was detected using 100 μL/well of a mouse monoclonal anti-phosphotyrosine antibody (clone 4G10 Upstate Biotech Ltd) diluted 1:2000 in PBS+4% BSA. […] The plate was developed using 100 μL/well TMB Substrate Solution (Endogen) and the reaction was stopped by adding an equiv.ual volume of H2SO4 0.36 M. Finally, the absorbance was read at 450 nm using an Ultrospec® 300 spectrophotometer (Amersham-Pharmacia Biotech). […]

[3] = target: Recombinant Abl T315I protein (Homo sapiens, UniProt P00519, T315I); experiment: Abl T315I mutant kinase inhibitory activity, ELISA-based in vitro kinase assay; format: biochemical; details: read-out: ABL IC50, purified Abl T315I, 0.3 mM ATP
Protocol: as §5

ALK-negative U937 cells = experiment: Tritiated thymidine uptake cell proliferation assay, U937 (control); details: read-out: U937 (ALK−) IC50; 3[H]-thymidine uptake, 72 h
Protocol: as §1
as §2, with “The 50% inhibitory concentration (IC50) was defined as the concentration of inhibitor, expressed in micromolar, that gave a 50% decrease in ^3[H]-thymidine uptake compared with controls.” left out
as §3

[4] = test system: NPM/ALK positive SUDHL-1 cells; experiment: Tritiated thymidine uptake cell proliferation assay, SUDHL-1; details: read-out: SUDHL (NPM/ALK+) IC50; 3[H]-thymidine uptake, 72 h
Protocol: as §4, §1, §2

SMILES | IC50 (Recombinant ALK kinase) [µM] | IC50 [1] [µM] | GI50 [2] [µM] | IC50 (Recombinant Ret protein) [nM] | IC50 [3] [µM] | IC50 (ALK-negative U937 cells) [nM] | IC50 [4] [nM]
COc1ccc(-c2ccc3[nH]c4ncc(Cl)cc4c3c2)cc1 | 0.8 | > 13 | > 13 | 2000 | > 25 | – | –
O=S(=O)(c1ccccc1)n1c2ccc(-c3ccc(O)cc3)cc2c2cc(Cl)cnc21 | 19 | 0.94 | 1.2 | – | – | 370 | 70
O=C(CSCCCO)c1ccc2[nH]c3ncc(Cl)cc3c2c1 | – | 42 | 5.3 | – | 17 | – | –
COc1ccc(-c2ccc3[nH]c4ncc(/C=C/c5cccc(F)c5)cc4c3c2)cc1 | > 100 | – | – | – | – | – | –
